Assay [1] has as its target polyketide synthase 16 (Pks16) (Dictyostelium discoideum (endogenous in AX2-214 cells)) (UniProt Q869W9). Kind of assay: cryo-EM structure; shotgun EM of endogenous assemblies in a heterogeneous pool of SEC and mixed-bed IEX fractions of D. discoideum lysate; 50 mM Hepes pH 7.4, 100 mM NaCl, 3 mM MgSO4, 0.1 mM EGTA, 1 mM DTT, 2% glycerol; 200 kV Glacios; proteins identified by MS of the same sample; AlphaFold 3 models fitted into the maps.

Amino acid sequences for entries named in this document (tags omitted).
UniProt Q869W9: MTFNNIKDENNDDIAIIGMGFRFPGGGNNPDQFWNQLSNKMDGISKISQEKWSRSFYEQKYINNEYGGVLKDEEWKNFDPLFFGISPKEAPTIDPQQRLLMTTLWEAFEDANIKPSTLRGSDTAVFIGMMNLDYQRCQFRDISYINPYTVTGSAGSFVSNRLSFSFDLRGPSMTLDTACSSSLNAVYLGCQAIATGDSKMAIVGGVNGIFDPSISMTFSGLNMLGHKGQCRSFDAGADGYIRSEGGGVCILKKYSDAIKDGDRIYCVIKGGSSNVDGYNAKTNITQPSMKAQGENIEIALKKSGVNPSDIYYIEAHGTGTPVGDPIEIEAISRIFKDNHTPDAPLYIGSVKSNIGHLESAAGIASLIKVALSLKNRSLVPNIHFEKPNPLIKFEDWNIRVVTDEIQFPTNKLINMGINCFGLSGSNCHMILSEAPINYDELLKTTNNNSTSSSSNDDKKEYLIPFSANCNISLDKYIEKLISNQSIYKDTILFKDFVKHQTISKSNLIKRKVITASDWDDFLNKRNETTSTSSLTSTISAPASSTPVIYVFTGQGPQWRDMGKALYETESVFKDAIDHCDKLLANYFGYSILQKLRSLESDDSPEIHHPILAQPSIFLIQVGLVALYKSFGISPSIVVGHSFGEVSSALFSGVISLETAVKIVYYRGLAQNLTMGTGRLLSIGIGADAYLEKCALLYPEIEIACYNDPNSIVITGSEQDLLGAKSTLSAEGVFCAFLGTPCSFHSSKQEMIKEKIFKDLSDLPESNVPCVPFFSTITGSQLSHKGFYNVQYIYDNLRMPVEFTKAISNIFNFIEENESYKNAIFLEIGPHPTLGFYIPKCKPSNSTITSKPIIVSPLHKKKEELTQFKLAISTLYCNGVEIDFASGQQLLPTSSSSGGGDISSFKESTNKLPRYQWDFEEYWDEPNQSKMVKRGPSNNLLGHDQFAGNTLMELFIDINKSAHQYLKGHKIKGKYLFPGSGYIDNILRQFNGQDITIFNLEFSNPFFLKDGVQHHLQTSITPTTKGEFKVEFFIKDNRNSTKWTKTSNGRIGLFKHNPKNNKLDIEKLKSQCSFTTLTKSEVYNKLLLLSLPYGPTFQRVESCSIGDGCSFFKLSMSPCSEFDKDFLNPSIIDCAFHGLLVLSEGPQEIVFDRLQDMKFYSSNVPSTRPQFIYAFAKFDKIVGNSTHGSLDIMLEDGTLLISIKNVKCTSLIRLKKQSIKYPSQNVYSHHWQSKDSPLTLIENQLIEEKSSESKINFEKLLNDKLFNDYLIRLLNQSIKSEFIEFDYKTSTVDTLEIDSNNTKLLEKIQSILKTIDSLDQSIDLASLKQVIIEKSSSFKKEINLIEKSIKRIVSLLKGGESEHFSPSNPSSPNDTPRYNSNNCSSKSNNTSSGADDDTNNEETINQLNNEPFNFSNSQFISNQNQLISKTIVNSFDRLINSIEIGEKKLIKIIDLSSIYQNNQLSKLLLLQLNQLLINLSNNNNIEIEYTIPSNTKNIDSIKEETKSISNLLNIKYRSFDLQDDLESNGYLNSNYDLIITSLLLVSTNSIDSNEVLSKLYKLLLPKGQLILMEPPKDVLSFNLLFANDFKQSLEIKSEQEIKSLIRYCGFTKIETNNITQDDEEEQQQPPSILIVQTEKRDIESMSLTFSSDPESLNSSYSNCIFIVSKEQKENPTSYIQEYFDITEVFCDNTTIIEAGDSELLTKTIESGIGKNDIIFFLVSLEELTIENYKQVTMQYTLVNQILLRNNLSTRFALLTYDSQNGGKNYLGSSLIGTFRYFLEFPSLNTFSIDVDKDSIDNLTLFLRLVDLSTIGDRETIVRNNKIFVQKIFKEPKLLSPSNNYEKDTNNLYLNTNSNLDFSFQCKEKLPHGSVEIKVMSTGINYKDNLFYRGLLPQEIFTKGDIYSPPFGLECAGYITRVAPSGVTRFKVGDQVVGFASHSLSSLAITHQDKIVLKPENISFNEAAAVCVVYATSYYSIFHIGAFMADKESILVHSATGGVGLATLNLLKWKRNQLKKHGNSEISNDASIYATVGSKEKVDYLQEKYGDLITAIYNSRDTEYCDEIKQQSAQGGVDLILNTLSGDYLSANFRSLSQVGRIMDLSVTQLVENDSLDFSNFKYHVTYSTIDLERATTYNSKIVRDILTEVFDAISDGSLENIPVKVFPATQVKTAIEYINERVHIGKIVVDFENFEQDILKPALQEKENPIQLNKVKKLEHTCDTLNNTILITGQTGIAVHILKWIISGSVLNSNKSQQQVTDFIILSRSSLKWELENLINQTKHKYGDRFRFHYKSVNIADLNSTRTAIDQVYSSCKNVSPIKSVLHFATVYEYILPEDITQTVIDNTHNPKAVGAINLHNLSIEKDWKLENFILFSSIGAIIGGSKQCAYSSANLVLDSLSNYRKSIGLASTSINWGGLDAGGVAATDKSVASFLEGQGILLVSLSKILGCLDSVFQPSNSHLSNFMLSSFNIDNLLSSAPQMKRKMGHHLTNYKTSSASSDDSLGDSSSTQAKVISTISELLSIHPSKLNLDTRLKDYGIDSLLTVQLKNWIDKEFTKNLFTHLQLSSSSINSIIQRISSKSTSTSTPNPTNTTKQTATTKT

The target of assay [2] is dihydrolipoyllysine-residue succinyltransferase (Odo2) of the mitochondrial 2-oxoglutarate dehydrogenase complex (Dictyostelium discoideum (endogenous in AX2-214 cells)) (UniProt Q869Y7). Described as above.

Results are given in words; binding and its absence hold for the method and conditions named. Some results given as binding are weak or reduced against the parent protein; the word gives no strength.

Consider “polyketide synthase 16 (Pks16) (from UniProt Q869W9 1-2603) (enzyme)”, for which the binding entry in assay [1] is given as “binds”.

B1: dihydrolipoyllysine-residue succinyltransferase (Odo2) of the mitochondrial 2-oxoglutarate dehydrogenase complex (enzyme, UniProt Q869Y7 48-439)
chain: FTSLFNNNNVNNTNIKYQRFYSSANDVVIKVPSMGDSISEGTIVAWTKNVGDSVRVDEVVCSIETDKVTIDINAPVSGTIVELFAKEGENVTVGNDLYKIAKGEVAAAPKVEAPKAAEAPKAAAPTPAPKAAETPKAAPAPKSEAPTPAPKSTTTTTSTGPSETRVKMTRIRQRTAQRLKDSQNTAAMLTTFNELDMSALMNMRKTYKDEFEKKHGVKFGFMSAFVKASTIALKEQPIVNASVEENDIVYHNNVNINVAVSAPRGLVVPVIRNCENLSFADIEKEIGRLSGLARNDALAIEDSIGGTFTISNGGVFGSMFGTPIINPPQSAILGMHAIKDRPYVVNGQVVVRPIMYLALTYDHRIIDGREAVTFLKKIKDVLENPERILLEL
Regarding B1, the binding entry in assay [2] is “binds”.

Source of the values: publication PMC12828403.
